Laboratory results from paper PMC12756398.

Key:
[1] = target: T1, Venus-ARAP1 (full-length ArfGAP with RhoGAP domain, ankyrin repeat and PH domain 1, mouse isoform 5) (mouse) (UniProt Q4LDD4); experiment: co-IP; 293T cells transfected with Venus-ARAP1 (or Venus alone) and SNAP-Rap1; lysis in 1% Triton X, 0.1 M Tris-HCl pH 7.5, 0.1 M NaCl, 10 mM MgCl2; anti-GFP antibody 3 h at 4 °C, Protein-G sepharose 1 h; immunoblotting
T1 sequence: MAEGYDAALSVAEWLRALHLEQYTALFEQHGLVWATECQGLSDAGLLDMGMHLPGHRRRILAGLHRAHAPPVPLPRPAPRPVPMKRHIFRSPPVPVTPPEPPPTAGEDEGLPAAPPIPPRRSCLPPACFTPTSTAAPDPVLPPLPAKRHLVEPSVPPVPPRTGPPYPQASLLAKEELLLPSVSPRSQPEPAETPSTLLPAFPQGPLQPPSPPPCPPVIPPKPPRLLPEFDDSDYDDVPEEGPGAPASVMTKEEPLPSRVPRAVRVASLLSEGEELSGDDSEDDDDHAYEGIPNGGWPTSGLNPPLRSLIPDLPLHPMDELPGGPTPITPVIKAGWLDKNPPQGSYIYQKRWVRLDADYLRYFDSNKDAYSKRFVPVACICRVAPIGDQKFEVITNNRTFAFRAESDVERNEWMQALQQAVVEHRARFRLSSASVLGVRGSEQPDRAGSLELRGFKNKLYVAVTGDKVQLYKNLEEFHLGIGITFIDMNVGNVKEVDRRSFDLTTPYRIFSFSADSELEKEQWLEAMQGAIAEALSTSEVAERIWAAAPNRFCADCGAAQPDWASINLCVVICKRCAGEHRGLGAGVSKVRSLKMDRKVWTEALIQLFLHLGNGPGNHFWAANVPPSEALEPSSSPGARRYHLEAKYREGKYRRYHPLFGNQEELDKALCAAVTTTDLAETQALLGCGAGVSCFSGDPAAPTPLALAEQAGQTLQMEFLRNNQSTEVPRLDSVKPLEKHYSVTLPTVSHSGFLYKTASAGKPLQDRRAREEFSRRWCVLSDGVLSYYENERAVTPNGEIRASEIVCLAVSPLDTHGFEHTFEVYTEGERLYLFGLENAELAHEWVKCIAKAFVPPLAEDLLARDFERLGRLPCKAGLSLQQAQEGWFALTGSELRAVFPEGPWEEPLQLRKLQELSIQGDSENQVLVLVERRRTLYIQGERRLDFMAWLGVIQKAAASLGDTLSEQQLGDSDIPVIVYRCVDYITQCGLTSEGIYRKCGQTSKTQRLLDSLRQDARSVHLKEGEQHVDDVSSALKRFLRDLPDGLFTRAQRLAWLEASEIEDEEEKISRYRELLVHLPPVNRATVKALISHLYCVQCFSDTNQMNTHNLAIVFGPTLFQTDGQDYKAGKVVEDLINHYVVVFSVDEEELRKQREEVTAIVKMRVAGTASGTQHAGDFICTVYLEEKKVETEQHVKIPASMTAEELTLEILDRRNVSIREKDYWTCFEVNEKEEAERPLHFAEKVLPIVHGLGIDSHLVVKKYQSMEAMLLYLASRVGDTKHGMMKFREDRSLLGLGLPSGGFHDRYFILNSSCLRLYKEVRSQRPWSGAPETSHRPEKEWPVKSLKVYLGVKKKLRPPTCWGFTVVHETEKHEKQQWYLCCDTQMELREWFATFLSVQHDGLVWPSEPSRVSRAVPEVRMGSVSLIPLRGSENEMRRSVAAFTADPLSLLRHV

[2] = target: T2, GST-fused RA domain of ARAP1 (aa 1179-1262) (mouse) (UniProt Q4LDD4); experiment: pull-down; GST, GST-RA or GST-RA-PH held on glutathione Sepharose 4B beads; lysates of 293T cells transfected with SNAP-tagged GTPases (1% Triton X-100, 0.1 M Tris-HCl pH 7.5, 0.1 M NaCl, 10 mM MgCl2); 4 °C, 1 h; immunoblotting; only the target purified
T2 sequence: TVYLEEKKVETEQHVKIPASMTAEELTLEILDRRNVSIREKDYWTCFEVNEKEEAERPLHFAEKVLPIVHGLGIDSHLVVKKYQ

[3] = target: T3, GST-fused RA-PH domains of ARAP1 (aa 1179-1452) (mouse) (UniProt Q4LDD4); experiment: as above
T3 sequence: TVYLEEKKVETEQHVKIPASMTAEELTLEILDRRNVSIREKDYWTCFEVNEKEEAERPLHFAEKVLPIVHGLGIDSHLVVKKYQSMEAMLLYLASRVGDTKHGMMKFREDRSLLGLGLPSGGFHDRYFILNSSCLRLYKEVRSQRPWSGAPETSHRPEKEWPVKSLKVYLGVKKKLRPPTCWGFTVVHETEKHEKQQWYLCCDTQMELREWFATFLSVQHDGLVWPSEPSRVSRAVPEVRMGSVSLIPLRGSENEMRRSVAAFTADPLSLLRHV

| binding [1] | binding [2] | binding [3] | Substance |
| --- | --- | --- | --- |
| binds | – | – | SNAP-tagged wild-type Rap1 |
| – | binds | binds | SNAP-tagged Rap1V12 (active form of Rap1) |
| – | binds | binds | SNAP-tagged Rap1N17 (inactive form of Rap1) |

These are yes or no findings as the source states them, for the method shown. Binding seen in cells or lysates may run through a third protein. Binding calls can cover weak binding; strength is not graded here. For some assays here: Where a sequence is shown, tags or fusion partners need not be part of it.
